The record followed here is PubChem BioAssay AID212 (DTP/NCI, 2004).

The assay deals with BDF1 mice, colon carcinoma 38 sc, T/C %. The assay can be described thus: NCI In Vivo Anticancer Drug Screen. Data for tumor model Colon Carcinoma 38 (subcutaneous) in B6D2F1 (BDF1) mice. The method in brief:
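T/C readout: treated group (T) measurement over vehicle control group (C) measurement. Endpoint is survival or tumor size in mice bearing a transplanted tumor.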

The list does not hold the whole screen: it is rich in T/C values a quarter to a half above the control, in often repeated tests (any T/C) and in doses without a T/C. Further doses and runs are listed elsewhere. T/C gives the treated animals as a percentage of the vehicle group. Schedules are NCI's codes, taken here to give the interval after Q, in days (D) or hours (H), and the number of doses after X. Some T/C values are followed by the survivors on the day toxicity was checked, most often the fifth; where none is given, no animal had died by that day. Some entries were tested several times; the results are listed from low to high. Additions like (4×) count equal records among those shown. Some entries give survivors of the animals treated and no T/C: the source holds a T/C of zero for them, seemingly a mark for toxic or unscored doses. Counts of survivors are from the toxicity check (mostly the fifth day) where no day follows; animals may have died later. For survival time, this PubChem deposit counts one and a half times the control or more as active, and values a quarter to a half above the control carry no call in these data; other NCI protocols may use other cut-offs. Where a SMILES comes first, the peptide text is derived from it. The star is where a group is joined. Trt = c1ccc(C(c2ccccc2)(c2ccccc2)*)cc1; Cbz = O=C(OCc1ccccc1)*

As to `O=c1ccc2ccccc2o1`, the survivor count (T/C endpoint: median tumor weight (est.), dose: 400.0 mg/kg/injection, schedule: Q07DX002 (ip), vehicle: Klucel (hydroxypropylcellulose) (HPC), higher T/C = larger tumour) is given as 0 of 10 on day 20 and the survivor count (T/C endpoint: median tumor weight (est.), dose: 800.0 mg/kg/injection, schedule: Q07DX002 (ip), vehicle: Klucel (hydroxypropylcellulose) (HPC), higher T/C = larger tumour) was 0 of 10 on day 20.
With `CC(=O)Nc1ccc(/C=N/NC(N)=S)cc1`, the T/C runs as follows: (T/C endpoint: median tumor weight (est.), dose: 50.0 mg/kg/injection, schedule: Q07DX002 (ip), vehicle: Klucel (hydroxypropylcellulose) (HPC), evaluated on day 20, higher T/C = larger tumour) 133 % of control; (T/C endpoint: median tumor weight (est.), dose: 400.0 mg/kg/injection, schedule: Q07DX002 (ip), vehicle: Klucel (hydroxypropylcellulose) (HPC), evaluated on day 20, higher T/C = larger tumour) 138 % of control [9 of 10 alive on day 20]; (T/C endpoint: median tumor weight (est.), dose: 450.0 mg/kg/injection, schedule: Q07DX002 (ip), vehicle: saline with Tween-80, evaluated on day 20, higher T/C = larger tumour) 133 % of control; (T/C endpoint: median tumor weight (est.), dose: 900.0 mg/kg/injection, schedule: Q07DX002 (ip), vehicle: saline with Tween-80, evaluated on day 20, higher T/C = larger tumour) 137 % of control.
On to `COC1=C2C[C@@H](C)C[C@@H](OC)[C@@H](O)[C@H](C)/C=C(\C)[C@@H](OC(N)=O)[C@H](OC)/C=C\C=C(/C)C(=O)NC(=CC1=O)C2=O`, for which the T/C (T/C endpoint: median tumor weight (est.), dose: 0.5 mg/kg/injection, schedule: Q07DX002 (ip), vehicle: saline with Tween-80, evaluated on day 20, higher T/C = larger tumour) was 137 % of control; the T/C (T/C endpoint: median tumor weight (est.), dose: 1.0 mg/kg/injection, schedule: Q07DX002 (ip), vehicle: saline with Tween-80, evaluated on day 20, higher T/C = larger tumour) is 136 % of control; the T/C (T/C endpoint: median tumor weight (est.), dose: 2.0 mg/kg/injection, schedule: Q07DX002 (ip), vehicle: saline with Tween-80, evaluated on day 20, higher T/C = larger tumour) is 132 % of control; the T/C (T/C endpoint: median tumor weight (est.), dose: 4.0 mg/kg/injection, schedule: Q07DX002 (ip), vehicle: saline with Tween-80, evaluated on day 20, higher T/C = larger tumour) was 142 % of control.
As for `CC[C@](C)(O)C(=O)O[C@H]1C(=O)O[C@@H]2C[C@H]3C(C)=CC(=O)[C@@H](O)[C@]3(C)[C@H]3[C@@]4(O)OC[C@]32[C@@H]1[C@@H](C)[C@H]4O`, the survivor count (T/C endpoint: median tumor weight (est.), dose: 4.0 mg/kg/injection, schedule: Q07DX002 (ip), vehicle: saline with Tween-80, higher T/C = larger tumour) was 3 of 10 on day 20.
As to `O=c1[nH]cc(F)c(=O)[nH]1`, the T/C was 140 % of control (T/C endpoint: median survival time, dose: 21.6 mg/kg/injection, schedule: Q04DX004 (ip), vehicle: alkali diluted with saline, evaluated on day 18, higher T/C = longer survival); 139 % of control (T/C endpoint: median survival time, dose: 21.6 mg/kg/injection, schedule: Q04DX004 (ip), vehicle: alkali diluted with saline, evaluated on day 93, higher T/C = longer survival); 128 % of control [9 of 10 alive on day 100] (T/C endpoint: median survival time, dose: 27.0 mg/kg/injection, schedule: Q04DX002 (ip), vehicle: saline, higher T/C = longer survival); 132 % of control (T/C endpoint: median survival time, dose: 36.0 mg/kg/injection, schedule: Q04DX004 (ip), vehicle: alkali diluted with saline, evaluated on day 18, higher T/C = longer survival); 129 % of control (T/C endpoint: median survival time, dose: 36.0 mg/kg/injection, schedule: Q04DX004 (ip), vehicle: alkali diluted with saline, evaluated on day 93, higher T/C = longer survival); 142 % of control [9 of 10 alive on day 100] (T/C endpoint: median survival time, dose: 45.0 mg/kg/injection, schedule: Q04DX002 (ip), vehicle: saline, higher T/C = longer survival). Besides, the T/C runs as follows: (T/C endpoint: median survival time, dose: 60.0 mg/kg/injection, schedule: Q04DX003 (ip), vehicle: saline, higher T/C = longer survival) 137 % of control; (T/C endpoint: median survival time, dose: 68.0 mg/kg/injection, schedule: Q04DX004 (ip), vehicle: saline, higher T/C = longer survival) 132 % of control; (T/C endpoint: median tumor weight (est.), dose: 8.7 mg/kg/injection, schedule: Q07DX002 (ip), vehicle: saline, evaluated on day 20, higher T/C = larger tumour) 46, 77, 80, 81, 85 [9 of 10 alive on day 20], 93 % of control; (T/C endpoint: median tumor weight (est.), dose: 17.5 mg/kg/injection, schedule: Q07DX002 (ip), vehicle: saline, evaluated on day 20, higher T/C = larger tumour) 76, 96 (2×), 107, 107 [9 of 10 alive on day 20], 123 % of control; (T/C endpoint: median tumor weight (est.), dose: 35.0 mg/kg/injection, schedule: Q07DX002 (ip), vehicle: saline, evaluated on day 20, higher T/C = larger tumour) 30, 41, 49, 58, 60, 66, 73, 82, 89 % of control; (T/C endpoint: median tumor weight (est.), dose: 70.0 mg/kg/injection, schedule: Q07DX002 (ip), vehicle: saline, evaluated on day 20, higher T/C = larger tumour) 1, 5 [8 of 10 alive on day 20], 9, 31, 34, 51 (2×), 88, 92 % of control. Besides, the T/C (T/C endpoint: median tumor weight (est.), dose: 140.0 mg/kg/injection, schedule: Q07DX002 (ip), vehicle: saline, evaluated on day 20, higher T/C = larger tumour) was 1, 2, 2 [8 of 10 alive on day 20], 8 % of control (2×). Moreover, the survivor count is on record as 0 of 9 on day 95 (T/C endpoint: median survival time, dose: 54.4 mg/kg/injection, schedule: Q01DX010 (ip), vehicle: saline, higher T/C = longer survival); 0 of 10 on day 33 (T/C endpoint: median survival time, dose: 100.0 mg/kg/injection, schedule: Q04DX003 (ip), vehicle: saline, higher T/C = longer survival); 0 of 8 on day 93 (T/C endpoint: median survival time, dose: 100.0 mg/kg/injection, schedule: Q04DX004 (ip), vehicle: alkali diluted with saline, higher T/C = longer survival); 5 of 10 on day 71 (T/C endpoint: median survival time, dose: 105.0 mg/kg/injection, schedule: Q07DX003 (iv), vehicle: saline, higher T/C = longer survival); 2 of 10 on day 90 (T/C endpoint: median survival time, dose: 110.0 mg/kg/injection, schedule: Q04DX004 (ip), vehicle: saline, higher T/C = longer survival); 2 of 10 on day 100 (T/C endpoint: median survival time, dose: 125.0 mg/kg/injection, schedule: Q04DX002 (ip), vehicle: saline, higher T/C = longer survival). Also, the survivor count was 0 of 10 on day 71 (T/C endpoint: median survival time, dose: 150.0 mg/kg/injection, schedule: Q07DX003 (iv), vehicle: saline, higher T/C = longer survival); 0 of 8 on day 93 (T/C endpoint: median survival time, dose: 167.0 mg/kg/injection, schedule: Q04DX004 (ip), vehicle: alkali diluted with saline, higher T/C = longer survival); 4 of 10 on day 20, 5 of 10 on day 20, 6 of 10 on day 20 (T/C endpoint: median tumor weight (est.), dose: 140.0 mg/kg/injection, schedule: Q07DX002 (ip), vehicle: saline, higher T/C = larger tumour).
As to `CS(=O)(=O)OCCCNCCCOS(C)(=O)=O`, for the setting “T/C endpoint: median tumor weight (est.), dose: 150.0 mg/kg/injection, schedule: Q07DX003 (ip), vehicle: saline, higher T/C = larger tumour”, the survivor count is 4 of 10.
For the compound `C=C[Si]12OCCN(CCO1)CCO2`, where the note is “T/C endpoint: median tumor weight (est.), dose: 100.0 mg/kg/injection, schedule: Q07DX002 (ip), vehicle: Klucel (hydroxypropylcellulose) (HPC), evaluated on day 20, higher T/C = larger tumour”, the T/C is 130 % of control.
On to `CC1(C)CC2(C)OC2C2(C1)N=NC(=Nc1ccccc1)O2` (stereo not given), for which, where the note is “T/C endpoint: median tumor weight (est.), dose: 400.0 mg/kg/injection, schedule: Q07DX002 (ip), vehicle: saline with Tween-80, evaluated on day 20, higher T/C = larger tumour”, the T/C was 127 % of control. The survivor count (T/C endpoint: median tumor weight (est.), dose: 800.0 mg/kg/injection, schedule: Q07DX002 (ip), vehicle: saline with Tween-80, higher T/C = larger tumour) is recorded as 4 of 10 on day 20.
With `O=NN(CCCl)C(=O)Oc1ccc(OC(=O)N(CCCl)N=O)cc1`, where the note is “T/C endpoint: median tumor weight (est.), dose: 100.0 mg/kg/injection, schedule: Q07DX002 (ip), vehicle: Klucel (hydroxypropylcellulose) (HPC), higher T/C = larger tumour”, the survivor count is given as 4 of 10 on day 20.
Take `CC1OC(O[C@H]2C[C@](O)(C(C)O)Cc3c(O)c4c(c(O)c32)C(=O)c2c(O)cccc2C4=O)CC(NC=O)C1O` (stereo not given in full): the survivor count was 4 of 10 on day 20 (T/C endpoint: median tumor weight (est.), dose: 1.42 mg/kg/injection, schedule: Q07DX002 (ip), vehicle: distilled water + Tween-80, higher T/C = larger tumour); 5 of 10 on day 20 (T/C endpoint: median tumor weight (est.), dose: 1.9 mg/kg/injection, schedule: Q07DX002 (ip), vehicle: distilled water + Tween-80, higher T/C = larger tumour); 6 of 10 on day 20 (T/C endpoint: median tumor weight (est.), dose: 2.53 mg/kg/injection, schedule: Q07DX002 (ip), vehicle: distilled water + Tween-80, higher T/C = larger tumour); 0 of 10 on day 20 (T/C endpoint: median tumor weight (est.), dose: 3.38 mg/kg/injection, schedule: Q07DX002 (ip), vehicle: distilled water + Tween-80, higher T/C = larger tumour); 0 of 10 on day 20 (T/C endpoint: median tumor weight (est.), dose: 4.5 mg/kg/injection, schedule: Q07DX002 (ip), vehicle: distilled water + Tween-80, higher T/C = larger tumour); 0 of 10 on day 20 (T/C endpoint: median tumor weight (est.), dose: 6.0 mg/kg/injection, schedule: Q07DX002 (ip), vehicle: distilled water + Tween-80, higher T/C = larger tumour).
On to `COC(=O)C(CSC(c1ccccc1)(c1ccccc1)c1ccccc1)NC(=O)C(CC(N)=O)NC(=O)OCc1ccccc1` (stereo not drawn) (Cbz-Asn-Cys(Trt)-OMe; configuration not given here), for which the survivor count reads like this: (T/C endpoint: median tumor weight (est.), dose: 800.0 mg/kg/injection, schedule: Q07DX002 (ip), vehicle: distilled water + Tween-80, higher T/C = larger tumour) 6 of 10 on day 20; (T/C endpoint: median tumor weight (est.), dose: 1600.0 mg/kg/injection, schedule: Q07DX002 (ip), vehicle: distilled water + Tween-80, higher T/C = larger tumour) 2 of 9 on day 20.
With `O=C(O)C1CC(c2ccccc2)=NN1c1ccccc1` (stereo not given), where the note is “T/C endpoint: median tumor weight (est.), dose: 100.0 mg/kg/injection, schedule: Q07DX002 (ip), vehicle: water, evaluated on day 20, higher T/C = larger tumour”, the T/C is 141 % of control. The survivor count (T/C endpoint: median tumor weight (est.), dose: 400.0 mg/kg/injection, schedule: Q07DX002 (ip), vehicle: water, higher T/C = larger tumour) was 2 of 10 on day 20 and 4 of 10 on day 20; the survivor count (T/C endpoint: median tumor weight (est.), dose: 800.0 mg/kg/injection, schedule: Q07DX002 (ip), vehicle: water, higher T/C = larger tumour) is recorded as 0 of 10 on day 20.
As for `Cn1cnc([N+](=O)[O-])c1SCC(=O)O`, the T/C (T/C endpoint: median tumor weight (est.), dose: 56.2 mg/kg/injection, schedule: Q07DX002 (ip), vehicle: saline, evaluated on day 20, higher T/C = larger tumour) was 137 % of control.
